Measured values from publication PMC6073292.
These are yes or no findings as the source states them, for the method shown. In cells and extracts the contact can be indirect. Some binding calls cover weakened binding; strength is not graded here. For some of these results: Where a sequence is shown, tags or fusion partners need not be part of it. Blank lines part the entries; values can stand above or below the binder they belong to.

How the values were obtained:
[1] = molecular target: T1, Myc-Dvl1(1–250) (human) (UniProt O14640); test: co-IP; SK-N-SH cells co-transfected with Myc-Dvl1 (or truncations) and HA-Ngb, 24 h; lysed in RIPA buffer; IP with anti-Myc antibody and Protein A/G plus-agarose at 4 °C overnight, control IgG; blot with anti-HA and anti-Myc
T1 sequence: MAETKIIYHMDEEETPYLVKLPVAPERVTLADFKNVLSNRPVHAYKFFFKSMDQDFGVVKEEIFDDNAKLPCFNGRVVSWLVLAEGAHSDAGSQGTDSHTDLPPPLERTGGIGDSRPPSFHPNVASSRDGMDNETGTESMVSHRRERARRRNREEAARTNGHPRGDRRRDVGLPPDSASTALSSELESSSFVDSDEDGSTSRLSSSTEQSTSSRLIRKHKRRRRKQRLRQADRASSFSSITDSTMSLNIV

[2] = molecular target: T2, Myc-Dvl1(337–670) (human) (UniProt O14640); test: as above
T2 sequence: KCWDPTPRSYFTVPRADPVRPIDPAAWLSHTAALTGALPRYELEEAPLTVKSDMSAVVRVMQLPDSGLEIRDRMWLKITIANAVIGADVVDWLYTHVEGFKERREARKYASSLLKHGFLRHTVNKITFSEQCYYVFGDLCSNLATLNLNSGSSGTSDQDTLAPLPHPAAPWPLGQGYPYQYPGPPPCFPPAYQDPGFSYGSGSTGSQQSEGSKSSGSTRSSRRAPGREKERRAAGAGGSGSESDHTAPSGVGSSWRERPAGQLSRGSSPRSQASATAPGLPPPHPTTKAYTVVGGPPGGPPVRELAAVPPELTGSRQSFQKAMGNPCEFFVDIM

[3] = molecular target: T3, Myc-Dvl1 (Dishevelled-1, full length) (human) (UniProt O14640); test: as above
T3 sequence: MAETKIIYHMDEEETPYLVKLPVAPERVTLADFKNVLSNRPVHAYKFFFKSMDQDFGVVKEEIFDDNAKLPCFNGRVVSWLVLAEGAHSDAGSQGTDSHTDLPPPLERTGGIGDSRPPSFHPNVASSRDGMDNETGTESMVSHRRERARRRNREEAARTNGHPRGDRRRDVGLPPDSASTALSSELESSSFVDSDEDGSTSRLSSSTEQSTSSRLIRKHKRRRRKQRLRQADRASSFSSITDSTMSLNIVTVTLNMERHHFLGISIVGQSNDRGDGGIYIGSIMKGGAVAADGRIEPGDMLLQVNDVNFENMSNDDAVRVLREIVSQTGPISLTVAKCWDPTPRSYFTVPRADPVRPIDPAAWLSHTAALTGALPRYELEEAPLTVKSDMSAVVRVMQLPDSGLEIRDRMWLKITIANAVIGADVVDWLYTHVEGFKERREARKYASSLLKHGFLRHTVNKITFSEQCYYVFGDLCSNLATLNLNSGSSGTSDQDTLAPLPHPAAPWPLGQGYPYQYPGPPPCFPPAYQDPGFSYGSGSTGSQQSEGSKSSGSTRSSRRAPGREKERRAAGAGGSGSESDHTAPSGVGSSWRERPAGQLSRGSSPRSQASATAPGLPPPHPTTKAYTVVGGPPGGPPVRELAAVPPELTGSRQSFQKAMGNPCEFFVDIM

[4] = molecular target: T4, endogenous Dishevelled-1 (Dvl1) (human (endogenous in SK-N-SH)) (UniProt O14640); test: co-IP; endogenous proteins of SK-N-SH cells; lysed in RIPA buffer; IP with anti-Dvl1 rabbit polyclonal antibody and Protein A/G plus-agarose at 4 °C overnight, rabbit IgG as control; blot with anti-Ngb and anti-Dvl1; also cells treated with 10 ng/mL TNF-α or PBS for 1 h (more Ngb precipitated with TNF-α)
T4 sequence: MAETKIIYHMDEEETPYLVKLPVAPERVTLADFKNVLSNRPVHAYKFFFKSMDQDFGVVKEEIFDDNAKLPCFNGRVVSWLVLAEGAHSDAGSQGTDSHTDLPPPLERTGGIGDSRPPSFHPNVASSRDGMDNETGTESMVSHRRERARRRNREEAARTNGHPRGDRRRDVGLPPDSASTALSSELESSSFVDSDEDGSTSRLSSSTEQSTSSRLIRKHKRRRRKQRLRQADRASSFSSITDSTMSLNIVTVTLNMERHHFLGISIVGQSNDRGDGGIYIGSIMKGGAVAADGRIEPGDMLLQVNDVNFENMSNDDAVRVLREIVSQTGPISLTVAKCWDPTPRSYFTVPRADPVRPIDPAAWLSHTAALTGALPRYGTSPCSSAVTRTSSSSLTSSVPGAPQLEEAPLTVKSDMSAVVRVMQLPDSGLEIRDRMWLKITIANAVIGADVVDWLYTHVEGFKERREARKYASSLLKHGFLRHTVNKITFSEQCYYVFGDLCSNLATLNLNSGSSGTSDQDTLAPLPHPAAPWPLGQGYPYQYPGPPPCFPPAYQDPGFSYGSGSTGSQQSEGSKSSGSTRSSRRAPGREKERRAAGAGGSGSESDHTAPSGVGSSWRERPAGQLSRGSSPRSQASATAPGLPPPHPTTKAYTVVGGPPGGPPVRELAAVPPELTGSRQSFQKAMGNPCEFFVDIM

binding [1]: binds | binding [2]: no binding | binding [3]: binds
B1: HA-Ngb (Neuroglobin) (protein, UniProt Q9NPG2 1-151)
chain: MERPEPELIRQSWRAVSRSPLEHGTVLFARLFALEPDLLPLFQYNCRQFSSPEDCLSSPEFLDHIRKVMLVIDAAVTNVEDLSSLEEYLASLGRKHRAVGVKLSSFSTVGESLLYMLEKCLGPAFTPATRAAWSQLYGAVVQAMSRGWDGE

binding [4]: binds
B2: endogenous Neuroglobin (Ngb) (protein, UniProt Q9NPG2 1-151)
chain: B1 chain
